According to paper doi:10.1101/2021.03.04.433988:
Results are given in words; binding and its absence hold for the method and conditions named. Binding seen in cells or lysates may run through a third protein. Some results given as binding are weak or reduced against the parent protein; the word gives no strength.

Sequences of proteins named here, by UniProt entry; tags and fusion partners are left off. A change or cut given only in a name is not applied to a line headed by its entry. A line that says so, or that is headed by a name, gives the form on record, which may keep a tag or linker. Residues count along the entry.
UniProt Q5T4S7, residues 4367-5163: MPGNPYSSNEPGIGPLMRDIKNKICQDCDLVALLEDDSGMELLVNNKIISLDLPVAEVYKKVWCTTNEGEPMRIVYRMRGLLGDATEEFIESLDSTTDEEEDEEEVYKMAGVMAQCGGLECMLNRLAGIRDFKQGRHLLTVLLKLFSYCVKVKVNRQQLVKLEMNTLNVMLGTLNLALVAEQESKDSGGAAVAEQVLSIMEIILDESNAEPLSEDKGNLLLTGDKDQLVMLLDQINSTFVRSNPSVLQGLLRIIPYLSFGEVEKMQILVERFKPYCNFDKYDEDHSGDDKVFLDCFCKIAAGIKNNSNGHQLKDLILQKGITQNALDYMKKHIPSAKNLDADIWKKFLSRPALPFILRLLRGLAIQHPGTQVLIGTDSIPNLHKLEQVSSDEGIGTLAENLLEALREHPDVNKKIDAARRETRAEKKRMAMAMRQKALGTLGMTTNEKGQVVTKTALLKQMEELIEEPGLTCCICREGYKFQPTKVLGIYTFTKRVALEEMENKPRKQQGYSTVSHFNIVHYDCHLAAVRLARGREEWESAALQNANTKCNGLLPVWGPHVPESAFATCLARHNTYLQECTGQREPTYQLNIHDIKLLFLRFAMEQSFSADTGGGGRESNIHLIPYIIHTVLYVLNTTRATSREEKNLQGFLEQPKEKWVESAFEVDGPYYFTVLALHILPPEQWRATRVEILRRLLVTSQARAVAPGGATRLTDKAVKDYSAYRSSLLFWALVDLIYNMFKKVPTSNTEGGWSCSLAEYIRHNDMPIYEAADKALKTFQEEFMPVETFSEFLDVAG
HA-tagged EZH2 (Q15910-2, form named): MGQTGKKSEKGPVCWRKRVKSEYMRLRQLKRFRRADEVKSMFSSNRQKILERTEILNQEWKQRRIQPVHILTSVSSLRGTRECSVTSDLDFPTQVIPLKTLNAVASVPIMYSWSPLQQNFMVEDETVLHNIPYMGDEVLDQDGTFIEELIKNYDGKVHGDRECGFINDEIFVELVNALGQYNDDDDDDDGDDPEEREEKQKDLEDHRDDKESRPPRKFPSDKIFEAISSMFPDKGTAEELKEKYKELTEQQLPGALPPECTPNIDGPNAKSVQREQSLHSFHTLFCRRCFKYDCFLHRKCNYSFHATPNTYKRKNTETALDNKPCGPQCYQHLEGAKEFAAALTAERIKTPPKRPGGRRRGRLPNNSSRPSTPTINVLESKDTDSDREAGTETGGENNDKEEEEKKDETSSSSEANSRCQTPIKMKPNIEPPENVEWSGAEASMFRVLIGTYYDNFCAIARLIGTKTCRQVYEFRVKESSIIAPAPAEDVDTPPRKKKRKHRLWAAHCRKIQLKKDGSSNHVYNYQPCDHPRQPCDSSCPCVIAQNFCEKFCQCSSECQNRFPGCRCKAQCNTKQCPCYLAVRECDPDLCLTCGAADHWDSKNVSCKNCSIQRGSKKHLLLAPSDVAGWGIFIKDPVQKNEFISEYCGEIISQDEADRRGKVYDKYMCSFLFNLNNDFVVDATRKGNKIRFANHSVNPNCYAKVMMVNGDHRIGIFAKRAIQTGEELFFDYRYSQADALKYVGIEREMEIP

Assays:
[1] = target: Flag-HA-tagged UBR4-LD (human) (UniProt Q5T4S7); assay: co-IP
HA-tagged EZH2 (human) = HA-tagged EZH2 (human) (UniProt Q15910); assay: co-IP

binding [1]	binding (HA-tagged EZH2 (human))	Substance
binds		HA-tagged EZH2 (from UniProt Q15910-2 1-751)
	binds	Flag-HA-tagged UBR4-LD (from UniProt Q5T4S7 4367-5163) (domain or fragment)
